# The supplement of paper PMC12067093, “Discovery and optimisation of a covalent ligand for TRIM25 and its application to targeted protein ubiquitination” (Chemical Science, 2025)
# By UniProt entry, the sequences of proteins in these tests, tags left out. Where a name states a change or a piece, a line headed by the entry shows the natural chain unless it says otherwise.
# UniProt Q9NVH6: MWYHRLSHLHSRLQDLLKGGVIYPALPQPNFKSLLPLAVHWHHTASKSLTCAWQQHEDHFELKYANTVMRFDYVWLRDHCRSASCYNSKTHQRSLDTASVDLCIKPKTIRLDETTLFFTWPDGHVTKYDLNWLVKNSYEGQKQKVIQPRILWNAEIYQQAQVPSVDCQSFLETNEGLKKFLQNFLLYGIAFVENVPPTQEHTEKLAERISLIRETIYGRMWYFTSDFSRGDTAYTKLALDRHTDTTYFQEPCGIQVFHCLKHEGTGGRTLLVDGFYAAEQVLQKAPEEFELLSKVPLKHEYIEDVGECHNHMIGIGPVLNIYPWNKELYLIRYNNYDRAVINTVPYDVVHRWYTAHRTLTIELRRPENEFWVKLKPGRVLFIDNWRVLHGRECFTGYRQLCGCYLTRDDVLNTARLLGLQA
# UniProt Q92547, whole entry, looked up: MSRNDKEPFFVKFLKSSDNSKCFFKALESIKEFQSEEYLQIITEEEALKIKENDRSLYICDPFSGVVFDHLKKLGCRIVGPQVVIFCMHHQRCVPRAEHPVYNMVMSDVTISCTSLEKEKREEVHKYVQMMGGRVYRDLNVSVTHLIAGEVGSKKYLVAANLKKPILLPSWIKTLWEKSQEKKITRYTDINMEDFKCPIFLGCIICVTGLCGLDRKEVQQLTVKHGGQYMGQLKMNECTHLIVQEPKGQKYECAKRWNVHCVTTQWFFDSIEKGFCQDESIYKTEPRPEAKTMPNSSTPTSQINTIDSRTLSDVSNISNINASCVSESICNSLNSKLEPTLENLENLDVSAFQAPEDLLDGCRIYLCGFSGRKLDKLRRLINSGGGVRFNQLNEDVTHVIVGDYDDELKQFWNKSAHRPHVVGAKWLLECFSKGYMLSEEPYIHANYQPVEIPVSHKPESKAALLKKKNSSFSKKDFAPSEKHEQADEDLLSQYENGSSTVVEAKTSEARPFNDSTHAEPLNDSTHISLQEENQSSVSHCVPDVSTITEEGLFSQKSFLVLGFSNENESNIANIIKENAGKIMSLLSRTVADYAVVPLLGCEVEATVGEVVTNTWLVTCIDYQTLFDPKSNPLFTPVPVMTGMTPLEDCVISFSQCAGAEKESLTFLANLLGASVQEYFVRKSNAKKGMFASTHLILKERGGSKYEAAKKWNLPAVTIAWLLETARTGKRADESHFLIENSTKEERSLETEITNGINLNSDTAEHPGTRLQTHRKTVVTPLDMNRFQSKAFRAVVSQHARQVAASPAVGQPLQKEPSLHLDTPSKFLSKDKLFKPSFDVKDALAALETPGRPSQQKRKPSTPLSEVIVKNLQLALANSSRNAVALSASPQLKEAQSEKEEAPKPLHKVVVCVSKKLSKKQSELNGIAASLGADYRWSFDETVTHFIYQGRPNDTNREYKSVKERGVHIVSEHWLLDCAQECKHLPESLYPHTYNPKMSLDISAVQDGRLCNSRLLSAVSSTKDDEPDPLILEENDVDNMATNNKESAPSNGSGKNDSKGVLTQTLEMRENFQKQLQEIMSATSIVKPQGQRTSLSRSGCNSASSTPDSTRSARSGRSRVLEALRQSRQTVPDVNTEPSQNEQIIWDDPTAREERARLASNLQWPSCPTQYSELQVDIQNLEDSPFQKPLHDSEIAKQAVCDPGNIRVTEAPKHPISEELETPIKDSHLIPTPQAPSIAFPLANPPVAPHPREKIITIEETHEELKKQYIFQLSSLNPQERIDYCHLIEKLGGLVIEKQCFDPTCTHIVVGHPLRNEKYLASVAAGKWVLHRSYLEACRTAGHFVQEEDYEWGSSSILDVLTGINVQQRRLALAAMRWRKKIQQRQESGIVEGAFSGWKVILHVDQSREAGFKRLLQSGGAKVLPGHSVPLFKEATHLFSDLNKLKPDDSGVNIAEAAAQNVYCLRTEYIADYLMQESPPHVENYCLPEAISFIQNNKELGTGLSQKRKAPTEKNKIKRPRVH
# Some of the results follow.
# What was measured:
# [1] = target: TMLHE_Q9NVH6_51_SLTCAWQQHEDHFELK (UniProt Q9NVH6); assay: probe-labelled cysteine peptide fold change vs DMSO (competition) (log2 fold change); higher = less target engagement (more negative = stronger competition); details: THP-1, incubation time: 4 h
# [2] = target: TOPBP1_Q92547_977_GVHIVSEHWLLDCAQECK (UniProt Q92547); assay: as above; details: THP-1, incubation time: 4 h
# 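Further: competitive chemoproteomic profiling in live THP-1 cells with an iodoacetamide desthiobiotin (IA-DTB) probe, comparing probe-labelled peptide intensities in compound-treated cells against DMSO-treated controls.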
structure (smiles),measurement,setting,value
CC1Cc2ccccc2N1C(=O)C1CCCN(C(=O)CCl)C1 (mixture of isomers) [TRIM25 ligand 11 (diastereomer mixture)],probe-labelled cysteine peptide fold change,[1]; 10 µM,-0.101
same,probe-labelled cysteine peptide fold change,[1]; 50 µM,-0.0646
same,probe-labelled cysteine peptide fold change,[2]; 10 µM,0.193
same,probe-labelled cysteine peptide fold change,[2]; 50 µM,-0.0107
